Data: patent US4683291A, “Platelet binding inhibitors” (Scripps Clinic and Research Foundation, priority 1985, dated 1987)
Not every detail of the peptide structures is certain; ends, links or a residue may be inferred. No end group written: not given here.

Protein sequences, listed by entry. Tags and fused reporters are not part of them. Residues count along the entry.
UniProt P05106, 27-788: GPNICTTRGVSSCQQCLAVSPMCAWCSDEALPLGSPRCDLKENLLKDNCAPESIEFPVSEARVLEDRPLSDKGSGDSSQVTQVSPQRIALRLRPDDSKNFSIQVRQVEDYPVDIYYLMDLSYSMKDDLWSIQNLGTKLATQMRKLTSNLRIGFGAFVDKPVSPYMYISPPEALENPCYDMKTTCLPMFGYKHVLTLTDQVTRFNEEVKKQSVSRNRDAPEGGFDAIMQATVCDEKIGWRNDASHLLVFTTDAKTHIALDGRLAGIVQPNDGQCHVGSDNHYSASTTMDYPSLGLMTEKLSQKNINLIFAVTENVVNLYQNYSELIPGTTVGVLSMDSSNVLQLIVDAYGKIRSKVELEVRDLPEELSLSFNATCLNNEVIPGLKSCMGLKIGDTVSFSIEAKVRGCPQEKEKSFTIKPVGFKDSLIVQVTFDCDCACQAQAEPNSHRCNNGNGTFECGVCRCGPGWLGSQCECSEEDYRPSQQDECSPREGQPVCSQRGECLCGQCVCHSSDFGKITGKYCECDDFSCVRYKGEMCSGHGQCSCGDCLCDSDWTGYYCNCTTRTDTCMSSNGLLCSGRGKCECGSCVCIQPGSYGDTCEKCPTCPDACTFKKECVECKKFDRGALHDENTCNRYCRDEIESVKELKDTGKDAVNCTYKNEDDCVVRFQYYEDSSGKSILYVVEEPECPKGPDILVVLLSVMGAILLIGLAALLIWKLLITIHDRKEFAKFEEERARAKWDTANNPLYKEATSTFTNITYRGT
UniProt P08514, 32-887 limits assumed: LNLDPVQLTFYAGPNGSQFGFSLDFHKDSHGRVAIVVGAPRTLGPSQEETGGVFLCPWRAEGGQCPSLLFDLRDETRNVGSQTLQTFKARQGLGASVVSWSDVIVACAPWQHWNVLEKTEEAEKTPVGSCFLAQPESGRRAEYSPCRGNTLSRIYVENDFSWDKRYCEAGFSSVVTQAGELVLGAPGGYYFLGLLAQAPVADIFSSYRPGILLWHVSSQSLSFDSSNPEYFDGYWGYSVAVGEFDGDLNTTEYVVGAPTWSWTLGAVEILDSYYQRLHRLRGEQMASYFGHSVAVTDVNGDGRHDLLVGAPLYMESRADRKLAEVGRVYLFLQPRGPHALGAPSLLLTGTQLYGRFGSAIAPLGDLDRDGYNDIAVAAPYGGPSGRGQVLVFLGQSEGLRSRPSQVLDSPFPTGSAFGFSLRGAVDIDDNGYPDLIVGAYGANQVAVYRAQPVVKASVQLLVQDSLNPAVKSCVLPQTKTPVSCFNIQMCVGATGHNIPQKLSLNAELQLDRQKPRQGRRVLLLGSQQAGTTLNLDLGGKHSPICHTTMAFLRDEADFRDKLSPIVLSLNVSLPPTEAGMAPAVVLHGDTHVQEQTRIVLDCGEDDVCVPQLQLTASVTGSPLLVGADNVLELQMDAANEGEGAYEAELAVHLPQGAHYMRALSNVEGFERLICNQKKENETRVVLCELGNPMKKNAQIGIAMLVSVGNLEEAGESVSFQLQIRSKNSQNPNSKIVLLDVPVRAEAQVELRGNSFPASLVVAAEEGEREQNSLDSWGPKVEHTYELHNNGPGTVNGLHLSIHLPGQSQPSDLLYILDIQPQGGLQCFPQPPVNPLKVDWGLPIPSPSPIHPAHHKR
UniProt P08514, 891-1039 limits assumed: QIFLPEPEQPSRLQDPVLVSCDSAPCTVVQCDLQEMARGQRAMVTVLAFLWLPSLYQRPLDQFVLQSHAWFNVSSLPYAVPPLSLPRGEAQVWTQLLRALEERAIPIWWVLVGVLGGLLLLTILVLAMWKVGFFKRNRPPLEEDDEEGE

Legend:
[1] = target: T1, platelet receptor, the GPIIb/IIIa complex (Homo sapiens, UniProt P05106+P08514); assay: Inhibition of 125I-fibrinogen binding to thrombin-stimulated washed platelets
T1 construct: Platelets were isolated from normal platelet-rich plasma and washed by the albumin density gradient technique; endogenous in cells; host or cells: washed platelets from normal platelet-rich plasma, thrombin-stimulated
Procedure: Peptides were stored in the lyophilized state and dissolved in distilled water immediately before use. One-tenth volume of 10x modified Tyrode buffer was added before mixing with the platelet suspension. Platelets were isolated from normal platelet-rich plasma and washed by the albumin density gradient technique. Fibrinogen was purified following precipitation with glycine or polyethylene glycol 1000, and radiolabeled with ^125 I using Iodogen (Pierce). […] In each experimental mixture, platelets in modified Tyrode buffer were stimulated with human alpha-thrombin at 22°-25° C. for 10 minutes (3.125×10^11 platelets/L and 0.25 NIHU/ml of thrombin). Hirudin (Sigma) was then added at a 25-fold excess (V/V) for 5 minutes before the addition of ^125 I-fibrinogen and the peptide was then tested. After these additions, the final platelet count in the mixture was 1×10^11 /L, and fibrinogen was 0.176 micromolar. Separation of bound from free ligand was achieved by centrifuging 50 microliters of the mixture through 200 microliters of 20% sucrose at 12,000 g for 4 minutes. The platelet pellet was separated from the rest of the mixture, and the platelet-bound radioactivity was then determined. Non-specific binding was measured in mixtures containing a 75-fold excess of unlabeled fibrinogen. […] Each peptide was tested at six different concentrations, and the IC50 was derived from a plot of residual fibrinogen binding versus log of peptide concentration.

platelets [2] = assay: Platelet aggregation induced by ADP in normal platelet-rich plasma; type: cell-based
platelets [3] = assay: Release of 14C-serotonin from platelets; type: cell-based; settings: at the concentrations necessary to block fibrinogen binding to platelets

KRKRKRKRRGDV [Lys--Arg--Lys--Arg--Lys--Arg--Lys--Arg--Arg--Gly--Asp--Val]
affinity of fibrinogen binding to platelets ([1]; in the presence of the peptide): decrease | total number of available binding sites ([1]; in the presence of the peptide): remained unchanged | inhibitory effect on increasing the fibrinogen concentration ([1]; increasing fibrinogen concentration): could be overcome by increasing the fibrinogen concentration | peptide concentration for complete inhibition of aggregation (platelets [2]): 20 µM | induction of release of 14C-serotonin from platelets (platelets [3]): did not induce the release | inhibition of 14C-serotonin release induced by thrombin (platelets [3]): nor did it inhibit the release induced by thrombin
